# Reference: PubChem BioAssay AID624297 (National Center for Advancing Translational Sciences (NCATS), 2012)
# Screen size: about 340,000 compounds; about 6,200 (1.8%) were called active. Inconclusive means that the source gave no clear call. Such entries were picked first, then a sample of the others. The call rests on the fitted dose curve; in most records, active means well fitted activation curve with a large enough effect; inconclusive means small, poorly fitted or top-dose-only effect; inactive means no such curve, though single readings can be large or run the other way. A potency beside an inconclusive call is a rough fit, not a confirmed value.
# Test: A quantitative high throughput screen for small molecules that induce DNA re-replication in SW480 colon adenocarcinoma cells. Further: nearly all actives have a fitted effect of over 55% in size. On re-replication activation: % of control where 0% means no effect.
# Details: Hoechst DNA content imaging, 48 h; re-replication activation: at 46.1 µM (top of the series) unless noted
# Summary of the method: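 Cells (250 per well) received 23 nL compound or DMSO by pin tool and were kept 48 hr at 37 C, 5% CO2. Nuclei were then stained with Hoechst for 40 min and scanned for DNA content.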
# Potency means the concentration at half of the fitted maximal effect.
Compound,Potency,re-replication activation
CC(C)OC(=O)c1sc2nc(-c3ccccc3)ccc2c1N,active: 5.8 µM,
Cc1cccc2c1-c1sc(C(=O)Nc3nccs3)cc1CO2,active: 7.31 µM,
Cn1c(CC(=O)Nc2ccc(Cl)c(Cl)c2)nnc1SCC(=O)N1CCN(c2ccccc2)CC1,"inconclusive: 35.5 µM [activator, partial curve, poor fit]",
Cc1c(Cc2ccccc2)c(=O)[nH]c(=O)n1C,inactive,
N#C/C(=C\Nc1ccc2cn[nH]c2c1)c1nc(-c2ccc(Cl)cc2)cs1,"inconclusive: 20.6 µM [activator, single point]",
CCOc1ccc2[nH]c(=O)c(CN(Cc3ccc(F)cc3)C(=O)c3ccco3)cc2c1,"inconclusive: 20.6 µM [activator, single point]",
CC1CCCCN1CCNC(=O)c1cc2c(-c3ccccc3F)nn(C)c2s1 (stereo unspecified),inactive,
N#CC(C(=S)Nc1ccccc1)c1nc2ccccc2[nH]1 (stereo unspecified),"inconclusive: 29.1 µM [activator, single point]",
CCc1c(N)nc(N)nc1Nc1ccc(C)c(C)c1,inactive,
COc1ccc(C(O)(C2CCCCC2)C(CN2CCOCC2)c2ccccc2)cc1 (stereo unspecified),"inconclusive: 20.6 µM [activator, single point]",
Nc1ccc2cc3ccccc3cc2c1,"inconclusive: 5.8 µM [activator, single point]",
COc1ccc(C2NC(=O)NC(c3ccccc3)=C2c2nc3ccccc3s2)cc1 (stereo unspecified),"inconclusive: 29.1 µM [activator, single point]",
CN1CCN(S(=O)(=O)c2ccc(Cl)cc2)CC1,"inconclusive: 29.1 µM [activator, partial curve, poor fit]",
COC(=O)c1ccc(Cn2cc(/C=C\[N+](=O)[O-])c3ccccc32)o1,"inconclusive: 29.1 µM [activator, single point]",
Nc1ncc(-c2ccccc2)c(-c2ccc(OCc3ccccc3)cc2O)n1,"inconclusive: 9.2 µM [activator, partial curve, poor fit]",
CCOC(=O)N1CCC(N2CCN(Cc3ccc(C)o3)C(CCO)C2)CC1 (stereo unspecified),inactive,
Cc1ccc(OCC(=O)N/N=C/C=C/c2ccco2)cc1,"inconclusive: 12.6 µM [activator, partial curve, poor fit]",
O=C(N/N=C/c1ccccc1O)C1SCCCS1,"inconclusive: 3.66 µM [activator, full curve]",
C[C@H](NC(=O)[C@H]1N2C(=O)c3ccccc3C2SC1(C)C)C(=O)N1CCC[C@H]1CO (stereo partly specified),"inconclusive: 3.26 µM [activator, partial curve, poor fit]",
CCCC[C@@H]1CNC(=S)N1CC1CCCCC1,"inconclusive: 23.1 µM [activator, single point]",
Cc1ccc(NC(=O)Cn2c(=O)c3cccn3c3ccccc32)c(C)c1,"inconclusive: 0.116 µM [activator, full curve, poor fit]",
COc1cc2c(cc1OC)C(c1cc(C)ccc1C)CC(=O)N2 (stereo unspecified),inactive,
COc1cc(CNc2ccc3[nH]c(=O)[nH]c3c2)ccc1OCc1ccccc1F,inactive,

# Sorted by number of heavy atoms (falling): some entries from above.
Compound,Potency,re-replication activation
O=C(N/N=C/c1ccccc1O)C1SCCCS1,"inconclusive: 3.66 µM [activator, full curve]",
CCCC[C@@H]1CNC(=S)N1CC1CCCCC1,"inconclusive: 23.1 µM [activator, single point]",
Nc1ccc2cc3ccccc3cc2c1,"inconclusive: 5.8 µM [activator, single point]",

# Next part:

Compound,Potency,re-replication activation
CNC(=O)COc1ccc(S(=O)(=O)N2CCCC2)cc1,inactive,
O=C(Nc1c2ccccc2nc2ccccc12)C(Cl)(Cl)Cl,"inconclusive: 20.6 µM [activator, single point]",
CSc1ncccc1C(=O)Nc1cccc(S(=O)(=O)N2CCOCC2)c1,inactive,
COc1ccc(C2CC(c3ccccc3)=NN2c2ccccc2)c(C(=O)O)c1OC (stereo unspecified),"inconclusive: 29.1 µM [activator, single point]",
O=C(NC1=NCCS1)c1ccc(Cl)c(S(=O)(=O)N2CCCC2)c1,"inconclusive: 20.6 µM [activator, single point]",
COc1ccccc1N=CC1=C(O)CC(c2ccccc2)CC1=O (stereo unspecified),inactive,
O=C(CSc1nc2ccccc2s1)N/N=C/c1cc([N+](=O)[O-])ccc1O,"inconclusive: 25.9 µM [activator, single point]",
O=C(CCSCc1ccccc1Cl)N1CCN(c2cccc(Cl)c2)CC1,inactive,
COc1ccc(-c2noc(CCC(=O)N3CCN(c4ccccc4Br)CC3)n2)cc1,inactive,
Cc1c(C(=O)N2CCC[C@H]2C(N)=O)oc2c(F)cccc12,,inconclusive: 33% [activator]
O=C1C=C(NC2=CC3OC(c4ccccc4)OCC3OC2=O)CCC1 (stereo unspecified),"inconclusive: 20.6 µM [activator, single point]",
Cc1oc(-c2ccccc2Cl)nc1CS(=O)CC(=O)N1CCN(c2ccccc2)CC1 (stereo unspecified),"inconclusive: 16.4 µM [activator, single point]",
CCCNC(=O)N1CCN(S(=O)(=O)c2ccc3c(c2)OCCO3)CC1,inactive,
CN(c1ccccc1)S(=O)(=O)c1cccc(NC(=O)CCNC(=O)c2ccccc2)c1,inactive,
CC(=O)c1c(N2CCN(c3ccccc3)CC2)nc(=S)n(-c2ccccc2)c1C,inactive,
Cc1ccc(S(=O)(=O)N(CC(=O)Nc2ccccc2)C(=O)N2CCN(C)CC2)cc1,inactive,
COc1ccc(C2c3[nH]c4ccccc4c3CCN2Cc2cccn2-c2ncccn2)cc1C (stereo unspecified),"inconclusive: 32.6 µM [activator, single point]",
Cc1cc(C)c(C#N)c(SCC(=O)c2ccccc2)n1,"inconclusive: 5.8 µM [activator, partial curve, poor fit]",
Cc1ccnc(N2CCCC(C(=O)Nc3ccc(C)c(C)c3)C2)n1 (stereo unspecified),inactive,
COC(=O)c1ccc2nc(Nc3nc4ccc(F)cc4s3)sc2c1,"inconclusive: 20.6 µM [activator, partial curve, poor fit]",
COc1ccc(C=C(c2nc3ccccc3s2)c2nc3ccccc3s2)cc1O,"inconclusive: 20.6 µM [activator, single point]",
COc1ccc(C=O)cc1COc1c(F)c(F)cc(F)c1F,"inconclusive: 35.5 µM [activator, single point]",
NC(=O)C1CCN(C(=O)CC2(CC(=O)O)CCCCC2)CC1,"inconclusive: 0.116 µM [activator, full curve, poor fit]",
